The target in one experiment is T1, GST-μ1 (UniProt P35585).
T1 sequence: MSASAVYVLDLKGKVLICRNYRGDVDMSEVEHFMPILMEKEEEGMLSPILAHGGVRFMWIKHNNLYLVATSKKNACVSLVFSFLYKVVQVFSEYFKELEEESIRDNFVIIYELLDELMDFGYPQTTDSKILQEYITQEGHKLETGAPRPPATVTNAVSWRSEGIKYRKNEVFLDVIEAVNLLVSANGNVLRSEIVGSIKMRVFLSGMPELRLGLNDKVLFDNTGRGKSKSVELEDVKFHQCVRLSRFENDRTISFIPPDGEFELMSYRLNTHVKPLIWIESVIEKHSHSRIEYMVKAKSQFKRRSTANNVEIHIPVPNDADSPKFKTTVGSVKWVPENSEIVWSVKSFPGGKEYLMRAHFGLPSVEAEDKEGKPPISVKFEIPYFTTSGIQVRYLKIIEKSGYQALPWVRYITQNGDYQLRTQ
As to the kind of experiment: pull-down; glutathione beads bearing 1 μg GST-μ1; 0.5 μg purified MBP-Vangl2 cytosolic domain in 400 μl of 100 mM KCl, 20 mM Hepes pH 7.4, 5 mM MgCl2, 0.5% TX-100, 0.1 mg/ml BSA, 4°C, 90 min; immunoblot; both purified.

Experiment [1] addresses T2, GST-Arfrp1 (Q79L), dominant active form, GTPγS-loaded (UniProt Q13795).
T2 sequence: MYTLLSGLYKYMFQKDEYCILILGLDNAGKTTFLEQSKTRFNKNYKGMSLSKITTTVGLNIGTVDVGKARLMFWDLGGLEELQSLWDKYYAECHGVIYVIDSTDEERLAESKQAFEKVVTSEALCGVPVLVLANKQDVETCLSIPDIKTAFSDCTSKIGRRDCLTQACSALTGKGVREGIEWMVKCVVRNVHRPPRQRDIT
As to the kind of experiment: pull-down; GST-Arfrp1 on glutathione beads loaded with GDP (wt) or GTPγS (Q79L); bovine brain cytosol, 4°C overnight, 20 mM Hepes pH 7.4, 100 mM KCl, 5 mM MgCl2, 0.1% TX100; washed with 500 mM KCl; bound proteins by immunoblot; only the target purified.

Results on two substances are retold here after PMC3539332.

Results are given in words; binding and its absence hold for the method and conditions named. Binding calls can cover weak binding; strength is not graded here. Tags and fused reporters may be left off the sequences shown. For some assays here: In cells and extracts the contact can be indirect.

Take “MBP-Vangl2 C-terminal domain wild type (domain or fragment)”: the binding result in the experiment with GST-μ1 is “binds”.

For γ1-adaptin, the binding entry in experiment [1] is “binds”.
